Experimental data as given in paper PMC3762332.
Construct, isoform or probe ends are uncertain for at least one entry. For some assays here: Tags and fusion partners may be left off the protein sequences shown.

Chains of the proteins cited; added tags and fusions are not shown. Lines headed by an entry give the natural chain unless they say otherwise; changes in a name come on top.
UniProt Q8NC26: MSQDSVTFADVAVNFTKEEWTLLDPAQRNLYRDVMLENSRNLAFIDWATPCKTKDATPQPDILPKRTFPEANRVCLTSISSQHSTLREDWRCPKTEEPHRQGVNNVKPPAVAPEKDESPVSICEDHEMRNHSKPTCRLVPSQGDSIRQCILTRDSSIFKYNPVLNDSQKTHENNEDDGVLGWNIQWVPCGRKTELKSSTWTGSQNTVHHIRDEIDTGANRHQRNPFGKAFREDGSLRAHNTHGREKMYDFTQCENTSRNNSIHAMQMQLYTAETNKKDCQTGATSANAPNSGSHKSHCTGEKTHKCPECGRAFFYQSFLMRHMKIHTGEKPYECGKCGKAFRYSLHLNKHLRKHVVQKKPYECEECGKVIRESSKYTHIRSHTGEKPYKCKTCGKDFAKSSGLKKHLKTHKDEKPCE
UniProt O00716: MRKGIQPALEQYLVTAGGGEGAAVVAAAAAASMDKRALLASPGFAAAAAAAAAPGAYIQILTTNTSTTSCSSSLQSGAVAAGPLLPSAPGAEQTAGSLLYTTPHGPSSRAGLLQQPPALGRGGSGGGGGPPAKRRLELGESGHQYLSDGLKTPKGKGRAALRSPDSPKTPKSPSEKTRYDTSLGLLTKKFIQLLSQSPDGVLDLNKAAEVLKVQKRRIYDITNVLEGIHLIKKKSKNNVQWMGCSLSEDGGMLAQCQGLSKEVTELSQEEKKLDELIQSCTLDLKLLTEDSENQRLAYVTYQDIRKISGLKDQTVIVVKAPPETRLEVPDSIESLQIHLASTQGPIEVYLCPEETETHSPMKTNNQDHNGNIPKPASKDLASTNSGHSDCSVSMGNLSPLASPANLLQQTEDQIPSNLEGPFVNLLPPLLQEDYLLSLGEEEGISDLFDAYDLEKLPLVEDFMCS
UniProt Q9BWM5: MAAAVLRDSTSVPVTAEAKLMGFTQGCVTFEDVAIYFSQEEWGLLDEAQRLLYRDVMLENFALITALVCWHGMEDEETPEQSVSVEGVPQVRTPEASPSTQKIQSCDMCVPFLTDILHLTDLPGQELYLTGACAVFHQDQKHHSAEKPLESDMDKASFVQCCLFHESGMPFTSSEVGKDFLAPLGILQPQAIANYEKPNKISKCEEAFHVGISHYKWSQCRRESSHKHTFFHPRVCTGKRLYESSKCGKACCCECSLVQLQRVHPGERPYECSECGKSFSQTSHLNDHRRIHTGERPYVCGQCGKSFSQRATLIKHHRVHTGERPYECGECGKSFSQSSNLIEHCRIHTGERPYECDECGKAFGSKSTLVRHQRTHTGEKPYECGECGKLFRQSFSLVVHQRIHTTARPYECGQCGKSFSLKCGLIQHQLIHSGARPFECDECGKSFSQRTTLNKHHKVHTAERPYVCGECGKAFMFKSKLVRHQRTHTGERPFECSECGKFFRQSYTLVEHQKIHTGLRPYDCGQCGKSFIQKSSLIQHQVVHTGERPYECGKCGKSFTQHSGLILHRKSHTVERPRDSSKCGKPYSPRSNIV
UniProt P20719: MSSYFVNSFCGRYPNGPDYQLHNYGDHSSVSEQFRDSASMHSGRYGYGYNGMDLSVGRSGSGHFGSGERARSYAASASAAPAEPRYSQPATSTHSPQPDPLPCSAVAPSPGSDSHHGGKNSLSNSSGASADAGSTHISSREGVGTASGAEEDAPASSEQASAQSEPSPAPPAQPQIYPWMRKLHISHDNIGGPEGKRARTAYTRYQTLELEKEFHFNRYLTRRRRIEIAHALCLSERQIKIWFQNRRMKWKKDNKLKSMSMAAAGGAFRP
UniProt P43694: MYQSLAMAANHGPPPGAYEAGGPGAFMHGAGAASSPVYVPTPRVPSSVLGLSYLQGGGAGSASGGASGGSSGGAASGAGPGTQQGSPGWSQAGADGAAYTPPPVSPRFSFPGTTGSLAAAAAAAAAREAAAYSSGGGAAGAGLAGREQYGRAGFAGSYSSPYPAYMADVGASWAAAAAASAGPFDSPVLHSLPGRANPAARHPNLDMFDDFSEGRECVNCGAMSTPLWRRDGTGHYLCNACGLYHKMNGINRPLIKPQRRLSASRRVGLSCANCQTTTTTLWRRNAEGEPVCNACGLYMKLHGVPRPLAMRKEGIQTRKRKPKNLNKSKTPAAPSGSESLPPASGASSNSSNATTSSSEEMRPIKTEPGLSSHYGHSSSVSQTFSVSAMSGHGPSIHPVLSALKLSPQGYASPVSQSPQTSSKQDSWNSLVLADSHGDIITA
UniProt P19793: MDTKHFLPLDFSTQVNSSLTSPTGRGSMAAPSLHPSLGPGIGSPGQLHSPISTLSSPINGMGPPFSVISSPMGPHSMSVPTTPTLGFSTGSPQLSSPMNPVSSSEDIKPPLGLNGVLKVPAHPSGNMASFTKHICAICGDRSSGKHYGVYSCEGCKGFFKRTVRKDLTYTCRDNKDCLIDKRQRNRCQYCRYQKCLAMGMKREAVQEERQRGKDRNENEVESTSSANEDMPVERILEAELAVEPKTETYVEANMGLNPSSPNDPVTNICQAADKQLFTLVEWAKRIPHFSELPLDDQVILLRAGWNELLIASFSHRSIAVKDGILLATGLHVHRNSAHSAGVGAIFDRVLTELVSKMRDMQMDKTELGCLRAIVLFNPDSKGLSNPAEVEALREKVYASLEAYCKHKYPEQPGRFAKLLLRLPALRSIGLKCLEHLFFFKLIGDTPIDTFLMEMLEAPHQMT

Experiments:
Test in all cases: protein microarray
Conditions in all cases: 10-fold cold unmethylated competitor; 5mC at CpG (SssI, both strands); recombinant protein; protein details: GST (N-terminal); label: Cy5
[1] = biological target: ZNF114 (Homo sapiens) (UniProt Q8NC26)
[2] = biological target: E2F3 (Homo sapiens) (UniProt O00716)
[3] = biological target: ZNF416 (Homo sapiens) (UniProt Q9BWM5)
[4] = biological target: T1, SCAPER (Homo sapiens) (UniProt Q9BY12)
T1 sequence (looked up, limits assumed): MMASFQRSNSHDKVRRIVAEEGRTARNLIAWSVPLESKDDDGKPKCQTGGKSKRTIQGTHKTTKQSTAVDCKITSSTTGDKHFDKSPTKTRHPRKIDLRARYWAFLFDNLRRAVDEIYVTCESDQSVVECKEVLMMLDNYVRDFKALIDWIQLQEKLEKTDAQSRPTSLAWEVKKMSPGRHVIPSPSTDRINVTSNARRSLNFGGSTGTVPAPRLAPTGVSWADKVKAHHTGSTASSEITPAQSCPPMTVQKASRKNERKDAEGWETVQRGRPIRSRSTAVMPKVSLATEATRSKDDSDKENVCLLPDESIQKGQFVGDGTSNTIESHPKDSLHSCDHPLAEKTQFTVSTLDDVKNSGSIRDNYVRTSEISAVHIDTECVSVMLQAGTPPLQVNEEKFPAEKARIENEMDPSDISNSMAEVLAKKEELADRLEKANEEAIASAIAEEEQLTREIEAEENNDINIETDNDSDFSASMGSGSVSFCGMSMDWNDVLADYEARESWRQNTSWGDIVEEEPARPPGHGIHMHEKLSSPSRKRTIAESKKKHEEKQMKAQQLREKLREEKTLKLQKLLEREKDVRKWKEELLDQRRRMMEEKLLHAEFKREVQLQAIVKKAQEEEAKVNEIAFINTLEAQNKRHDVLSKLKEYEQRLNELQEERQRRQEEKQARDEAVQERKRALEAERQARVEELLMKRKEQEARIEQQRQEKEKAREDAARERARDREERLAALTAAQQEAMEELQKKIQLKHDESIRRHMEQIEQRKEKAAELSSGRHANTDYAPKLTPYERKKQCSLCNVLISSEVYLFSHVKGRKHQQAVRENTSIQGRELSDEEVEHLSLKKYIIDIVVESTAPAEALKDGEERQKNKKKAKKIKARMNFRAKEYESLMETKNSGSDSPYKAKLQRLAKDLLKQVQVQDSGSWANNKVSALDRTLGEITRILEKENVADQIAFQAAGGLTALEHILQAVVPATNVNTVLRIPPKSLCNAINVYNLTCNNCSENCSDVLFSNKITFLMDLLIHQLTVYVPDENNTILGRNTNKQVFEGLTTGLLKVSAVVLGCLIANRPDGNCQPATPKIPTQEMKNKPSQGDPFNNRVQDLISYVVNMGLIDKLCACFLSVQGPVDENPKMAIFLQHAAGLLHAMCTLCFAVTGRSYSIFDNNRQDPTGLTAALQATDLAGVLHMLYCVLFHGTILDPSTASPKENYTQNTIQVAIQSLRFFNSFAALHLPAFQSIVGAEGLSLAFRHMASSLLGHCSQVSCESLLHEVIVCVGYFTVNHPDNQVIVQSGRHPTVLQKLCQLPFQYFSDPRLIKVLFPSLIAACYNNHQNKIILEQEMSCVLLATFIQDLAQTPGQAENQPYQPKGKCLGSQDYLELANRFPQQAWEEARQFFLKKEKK

[5] = biological target: HOXA5 (Homo sapiens) (UniProt P20719)
[6] = biological target: GATA4 (Homo sapiens) (UniProt P43694)
[7] = biological target: T2, RNF138 (Homo sapiens) (UniProt Q8WVD3)
T2 sequence (looked up, limits assumed): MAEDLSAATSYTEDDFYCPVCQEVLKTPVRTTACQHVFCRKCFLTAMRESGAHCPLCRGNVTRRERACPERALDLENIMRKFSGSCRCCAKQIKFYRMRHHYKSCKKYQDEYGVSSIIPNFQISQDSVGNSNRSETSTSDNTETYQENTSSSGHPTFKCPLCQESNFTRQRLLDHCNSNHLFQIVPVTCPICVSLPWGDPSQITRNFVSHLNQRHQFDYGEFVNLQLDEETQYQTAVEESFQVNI

[8] = biological target: T3, ZCCHC7 (Homo sapiens) (UniProt Q8N3Z6)
T3 sequence (looked up, limits assumed): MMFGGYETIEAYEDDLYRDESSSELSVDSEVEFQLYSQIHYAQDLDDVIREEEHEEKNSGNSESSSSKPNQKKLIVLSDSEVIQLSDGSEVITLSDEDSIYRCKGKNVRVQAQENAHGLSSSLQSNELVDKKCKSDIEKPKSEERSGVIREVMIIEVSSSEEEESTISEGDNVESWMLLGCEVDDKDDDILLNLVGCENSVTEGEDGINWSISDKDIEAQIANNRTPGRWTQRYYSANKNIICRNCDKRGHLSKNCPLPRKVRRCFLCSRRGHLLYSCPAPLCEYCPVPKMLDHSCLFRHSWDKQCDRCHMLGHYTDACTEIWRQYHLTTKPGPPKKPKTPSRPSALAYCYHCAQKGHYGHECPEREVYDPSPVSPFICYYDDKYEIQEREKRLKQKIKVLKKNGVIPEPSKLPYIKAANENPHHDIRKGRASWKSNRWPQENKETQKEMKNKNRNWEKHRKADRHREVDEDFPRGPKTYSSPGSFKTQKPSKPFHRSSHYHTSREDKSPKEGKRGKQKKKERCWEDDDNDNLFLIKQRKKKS

[9] = biological target: T4, SMAD4 (Homo sapiens) (UniProt Q13485)
T4 sequence (looked up, limits assumed): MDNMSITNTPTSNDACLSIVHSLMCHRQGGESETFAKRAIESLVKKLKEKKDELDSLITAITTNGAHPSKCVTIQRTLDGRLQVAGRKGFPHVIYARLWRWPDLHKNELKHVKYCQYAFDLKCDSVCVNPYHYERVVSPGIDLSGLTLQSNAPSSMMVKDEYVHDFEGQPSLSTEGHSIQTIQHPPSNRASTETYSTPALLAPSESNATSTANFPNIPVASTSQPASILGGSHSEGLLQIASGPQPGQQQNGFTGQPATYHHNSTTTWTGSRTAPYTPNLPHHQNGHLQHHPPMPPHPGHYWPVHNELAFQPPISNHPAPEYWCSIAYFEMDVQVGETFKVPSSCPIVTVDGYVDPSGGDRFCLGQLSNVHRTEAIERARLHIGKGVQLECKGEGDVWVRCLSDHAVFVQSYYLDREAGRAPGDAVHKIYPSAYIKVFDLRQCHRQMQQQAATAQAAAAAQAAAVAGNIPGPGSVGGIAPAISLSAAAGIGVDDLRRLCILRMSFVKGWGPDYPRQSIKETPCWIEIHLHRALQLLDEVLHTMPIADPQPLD

[10] = biological target: RXRA (Homo sapiens) (UniProt P19793)

Measured: binding result

CGCTTCCAAACGCTTCCCCCTATAGTGAGTGCTATTA (double strand) [M319]
binds: all assays above

CGCTGCCAAACGCTGCCCCCTATAGTGAGTGCTATTA (double strand) [M305]
binds: all assays above
